Experimental data taken from PMC8516343.
No constants are given. Whether binding was seen depends on the method and setting. Binding seen in cells or lysates may run through a third protein.

Chains of the proteins cited; added tags and fusions are not shown.
UniProt P18848: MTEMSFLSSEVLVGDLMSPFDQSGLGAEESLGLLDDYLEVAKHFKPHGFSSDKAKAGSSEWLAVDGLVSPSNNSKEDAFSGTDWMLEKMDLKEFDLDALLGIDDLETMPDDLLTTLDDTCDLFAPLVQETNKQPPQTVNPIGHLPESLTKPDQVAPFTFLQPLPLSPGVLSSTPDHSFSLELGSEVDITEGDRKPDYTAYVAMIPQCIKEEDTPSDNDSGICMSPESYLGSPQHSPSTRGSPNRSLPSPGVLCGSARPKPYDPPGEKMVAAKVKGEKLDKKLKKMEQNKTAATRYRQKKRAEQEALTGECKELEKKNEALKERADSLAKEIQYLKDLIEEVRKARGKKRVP
UniProt P49674: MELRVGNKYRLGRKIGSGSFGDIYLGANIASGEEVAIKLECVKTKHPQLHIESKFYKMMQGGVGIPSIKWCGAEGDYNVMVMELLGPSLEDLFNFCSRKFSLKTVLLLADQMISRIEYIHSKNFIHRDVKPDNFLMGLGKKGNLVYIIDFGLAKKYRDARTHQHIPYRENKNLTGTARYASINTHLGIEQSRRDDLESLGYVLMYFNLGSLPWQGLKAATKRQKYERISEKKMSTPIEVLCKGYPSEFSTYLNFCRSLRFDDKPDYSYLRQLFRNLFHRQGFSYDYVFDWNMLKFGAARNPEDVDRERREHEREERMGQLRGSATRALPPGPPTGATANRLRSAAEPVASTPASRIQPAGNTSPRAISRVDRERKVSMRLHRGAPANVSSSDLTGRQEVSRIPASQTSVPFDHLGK

Molecular target: HA-ATF4 (full-length wild-type) (human) (UniProt P18848)
Test: co-IP; anti-HA co-IP from HEK293T cells co-transfected with HA-ATF4 and Flag-CK1α/δ/ε, western blot with anti-Flag and anti-ATF4

binding: no binding
Substance: Flag-CK1ε (from UniProt P49674 1-416) (enzyme)
